Results as given in patent US20260240820A1, “METHOD FOR CONTROLLING MEMBRANE POTENTIAL-DEPENDENT ION CHANNEL THROUGH TYPE I TASTE RECEPTORS (T1RS)” (ION CHAT RESEARCH CORPORATE, priority 2022, published 2026).
At least one compound was matched to its structure with a doubt left. Some results were stated once for a whole list of compounds, not compound by compound.

System: VGSC
Assay: Patch-clamp recording of VGSC current, cell type not specified or several cell types (summary statements)
Type: cell-based, human
Details: for Time for VGSC inhibition to complete: 5 μM

| SMILES | Time for VGSC inhibition to complete [min] | Effects on VGSCs |
| --- | --- | --- |
| C[C@@H](NCCCc1cccc(C(F)(F)F)c1)c1cccc2ccccc12 [Cinacalcet] | 3 to 5 |  |
| CCOC(=O)C(C)(C)Oc1ccc(Cl)cc1 [Clofibrate] |  | Inhibition of VGSCs |
| CC(C)(Cc1ccc2ccccc2c1)NC[C@@H](O)COc1cccc(Cl)c1C#N [NPS-2143] | 3 to 5 |  |
